Data from publication PMC6486548.
For some assays here: A weaker result is weaker than the reference pair of the same experiment. For some assays here: Construct, isoform or probe ends are uncertain for at least one entry. For some assays here: Negatives hold for the conditions tested. For some assays here: At least one verdict rests on a figure or table, not on a statement of the authors. For some assays here: Whether high values mean tight binding is not given here for every scale.

How the values were obtained:
[1] = molecular target: MLE dsRBD1,2 (UniProt P24785); test: SAXS; conditions: 1:1 complex, SASDF62; recombinant protein; residues 1-257; protein details: N-terminal His6 removed by TEV
[2] = molecular target: MLE dsRBD1 (UniProt P24785); test: ITC; conditions: very small heat change; ITC: 10 mM HEPES pH 8.0, 75 mM NaCl, 2.5 mM MgCl2, 1 mM b-mercaptoethanol, 20 C; recombinant protein; residues 1-84; protein details: N-terminal His6 removed by TEV
[3] = molecular target: MLE dsRBD1 K4E (UniProt P24785); test: NMR titration; conditions: 1.3x RNA; NMR: protein in 20 mM NaPi pH 6.5, 200 mM NaCl, 1 mM DTT; recombinant protein; residues 1-84; protein details: N-terminal His6 removed by TEV
[4] = molecular target: MLE dsRBD1 K4E (UniProt P24785); test: filter binding; conditions: 5 mM Mg2+; Filter binding: 20 mM HEPES/NaOH pH 8.0, 150 mM NaCl, 5 mM MgCl2, on ice; recombinant protein; residues 1-84; protein details: N-terminal His6 removed by TEV; label: 5' label
[5] = molecular target: MLE dsRBD1,2 (UniProt P24785); test: filter binding; conditions: 5 mM Mg2+; Filter binding: 20 mM HEPES/NaOH pH 8.0, 150 mM NaCl, 5 mM MgCl2, on ice; recombinant protein; residues 1-257; protein details: N-terminal His6 removed by TEV; label: 5' label
[6] = molecular target: MLE full-length K53+54E K53E,K54E (UniProt P24785); test: filter binding; conditions: 5 mM Mg2+; Filter binding: 20 mM HEPES/NaOH pH 8.0, 150 mM NaCl, 5 mM MgCl2, on ice; recombinant protein; residues 1-1293; protein details: FLAG; label: 5' label
[7] = molecular target: MLE full-length K54+225E K54E,K225E (UniProt P24785); test: filter binding; conditions: 5 mM Mg2+; Filter binding: 20 mM HEPES/NaOH pH 8.0, 150 mM NaCl, 5 mM MgCl2, on ice; recombinant protein; residues 1-1293; protein details: FLAG; label: 5' label
[8] = molecular target: MLE dsRBD1 K54E (UniProt P24785); test: filter binding; conditions: 5 mM Mg2+; Filter binding: 20 mM HEPES/NaOH pH 8.0, 150 mM NaCl, 5 mM MgCl2, on ice; recombinant protein; residues 1-84; protein details: N-terminal His6 removed by TEV; label: 5' label
[9] = molecular target: MLE dsRBD1,2 K53+54E K53E,K54E (UniProt P24785); test: filter binding; conditions: 5 mM Mg2+; Filter binding: 20 mM HEPES/NaOH pH 8.0, 150 mM NaCl, 5 mM MgCl2, on ice; recombinant protein; residues 1-257; protein details: N-terminal His6 removed by TEV; label: 5' label
[10] = molecular target: MLE dsRBD1,2 linker deletion del85-140 (UniProt P24785); test: filter binding; conditions: affinity similar to dsRBD1,2; Filter binding: 20 mM HEPES/NaOH pH 8.0, 150 mM NaCl, 5 mM MgCl2, on ice; recombinant protein; residues 1-257; protein details: N-terminal His6 removed by TEV; label: 5' label
[11] = molecular target: MLE dsRBD1,2 K54E (UniProt P24785); test: filter binding; conditions: 5 mM Mg2+; Filter binding: 20 mM HEPES/NaOH pH 8.0, 150 mM NaCl, 5 mM MgCl2, on ice; recombinant protein; residues 1-257; protein details: N-terminal His6 removed by TEV; label: 5' label
[12] = molecular target: MLE dsRBD1,2 K54+225E K54E,K225E (UniProt P24785); test: filter binding; conditions: 5 mM Mg2+; Filter binding: 20 mM HEPES/NaOH pH 8.0, 150 mM NaCl, 5 mM MgCl2, on ice; recombinant protein; residues 1-257; protein details: N-terminal His6 removed by TEV; label: 5' label
[13] = molecular target: MLE dsRBD1 K53E (UniProt P24785); test: filter binding; conditions: 5 mM Mg2+; Filter binding: 20 mM HEPES/NaOH pH 8.0, 150 mM NaCl, 5 mM MgCl2, on ice; recombinant protein; residues 1-84; protein details: N-terminal His6 removed by TEV; label: 5' label
[14] = molecular target: MLE full-length K225E (UniProt P24785); test: filter binding; conditions: very little binding; Filter binding: 20 mM HEPES/NaOH pH 8.0, 150 mM NaCl, 5 mM MgCl2, on ice; recombinant protein; residues 1-1293; protein details: FLAG; label: 5' label
[15] = molecular target: MLE dsRBD2 (UniProt P24785); test: filter binding; conditions: 5 mM Mg2+; Filter binding: 20 mM HEPES/NaOH pH 8.0, 150 mM NaCl, 5 mM MgCl2, on ice; recombinant protein; residues 155-257; protein details: N-terminal His6 removed by TEV; label: 5' label
[16] = molecular target: MLE dsRBD1 K53+54E K53E,K54E (UniProt P24785); test: filter binding; conditions: 5 mM Mg2+; Filter binding: 20 mM HEPES/NaOH pH 8.0, 150 mM NaCl, 5 mM MgCl2, on ice; recombinant protein; residues 1-84; protein details: N-terminal His6 removed by TEV; label: 5' label
[17] = molecular target: MLE dsRBD1 (UniProt P24785); test: filter binding; conditions: 5 mM Mg2+, Filter binding: 20 mM HEPES/NaOH pH 8.0, 150 mM NaCl, 5 mM MgCl2, on ice, recombinant protein, residues 1-84, protein details: N-terminal His6 removed by TEV
[18] = molecular target: MLE dsRBD1,2 K4E (UniProt P24785); test: filter binding; conditions: 5 mM Mg2+; Filter binding: 20 mM HEPES/NaOH pH 8.0, 150 mM NaCl, 5 mM MgCl2, on ice; recombinant protein; residues 1-257; protein details: N-terminal His6 removed by TEV; label: 5' label
[19] = molecular target: MLE full-length K54E (UniProt P24785); test: filter binding; conditions: 5 mM Mg2+; Filter binding: 20 mM HEPES/NaOH pH 8.0, 150 mM NaCl, 5 mM MgCl2, on ice; recombinant protein; residues 1-1293; protein details: FLAG; label: 5' label
[20] = molecular target: MLE dsRBD1,2 K225E (UniProt P24785); test: filter binding; conditions: severely diminished but detectable; Filter binding: 20 mM HEPES/NaOH pH 8.0, 150 mM NaCl, 5 mM MgCl2, on ice; recombinant protein; residues 1-257; protein details: N-terminal His6 removed by TEV; label: 5' label
[21] = molecular target: MLE dsRBD1,2 K53E (UniProt P24785); test: filter binding; conditions: 5 mM Mg2+; Filter binding: 20 mM HEPES/NaOH pH 8.0, 150 mM NaCl, 5 mM MgCl2, on ice; recombinant protein; residues 1-257; protein details: N-terminal His6 removed by TEV; label: 5' label
[22] = molecular target: MLE full-length (UniProt P24785); test: filter binding; conditions: 5 mM Mg2+; Filter binding: 20 mM HEPES/NaOH pH 8.0, 150 mM NaCl, 5 mM MgCl2, on ice; recombinant protein; residues 1-1293; protein details: FLAG; label: 5' label

AGACGUGUAAAAUGUUGC / GUAACGUUUUACGCGCCU [SL7 18mer duplex]
binding result [1]: binds | binding result [2]: binds more weakly | binding result [3]: binds more weakly

ACUGAAGUCUUAAAAGACGUGUAAAAUGUUGCAAAUUAAGCAAAUAUAUAUGCAUAUAUGGGUAACGUUUUACGCGCCUUAACCAGU [SL7 (SL7long) RNA]
binding result [4]: no binding | binding signal (fold higher affinity than dsRBD2) [5]: 2 | binding result [6]: binds more weakly | binding result [7]: no binding | binding result [8]: no binding | binding result [9]: binds more weakly | binding result [10]: binds | binding result [11]: binds more weakly | binding result [12]: no binding | binding result [13]: no binding | binding result [14]: binds more weakly | binding signal (fold affinity vs dsRBD1,2) [15]: 0.5 | binding result [16]: no binding | Kd ([17]; label: 5' label): 11.5 µM | binding result [18]: binds more weakly | binding result [19]: binds more weakly | binding result [20]: binds more weakly | binding result [21]: binds more weakly | binding result [22]: binds

GUGUAAAAUGUUGCAAUAUAUAGUAACGUUUUACGC [SL7 14merLoop]
binding result ([17]; label: 5' label in filter binding): binds more weakly
